Results: patent US20240066131A1 (Protagonist Therapeutics, Inc., priority 2020, published 2024)
Some peptides are written in HELM: one residue between dots, names in brackets for other building blocks, links after the first $.

Tests used:
[1] = general procedure: Fmoc solid-phase peptide synthesis; Rink Amide MBHA (100-200 mesh, […]); HBTU/DIEA; PyAOP/DIEA for some couplings; HATU in difficult regions; Oxyma/DIC w; conditions: whole synthesis, scale 0.13 mmol, TFA salt
[2] = general procedure: Fmoc solid-phase peptide synthesis; Rink Amide MBHA resin (100-200 mesh, 0.57 or […]) for C-terminal amides; pre-loaded Wang resin for C-terminal ac; HBTU/DIEA; PyAOP/DIEA for some couplings; HATU in difficult regions; Oxyma/DIC w; conditions: whole synthesis, TFA salt; for final HPLC purity: analytical RP-HPLC; for isolated yield: overall, scale 0.13 mmol

**Q.** What does the source list for “PEPTIDE1{[XIVA].E.T.H.[XDpa].P.A.I.[dK].[XbhPhe].[XKAhx_Palm].[am]}$$$$V2.0”?
**A.** isolated mass [1]: 27.74 mg; final HPLC purity ([2]; run 1): >95%; final HPLC purity ([2]; run 2): 97%; isolated yield [2]: 12.2%

**Q.** For “Isovaleric acid-Glu-Thr-His-DIP-Pro-Ala-Ile-Lys(Ahx-Palm)-bhF-NH2”, which isolated mass [1] is on record?
**A.** The isolated mass was 45.31 mg.

**Q.** What about the “final HPLC purity” value ([2]; run 1) of the same substance?
**A.** The value was >95%.

**Q.** What about the “final HPLC purity” value ([2]; run 2) of the same substance?
**A.** Its value is 97%.

**Q.** And the isolated yield [2]?
**A.** Its isolated yield is 21.5%.
